Laboratory results as given in article PMC12589423.

Sequences of proteins named here, by UniProt entry; tags and fusion partners are left off.
UniProt O95573: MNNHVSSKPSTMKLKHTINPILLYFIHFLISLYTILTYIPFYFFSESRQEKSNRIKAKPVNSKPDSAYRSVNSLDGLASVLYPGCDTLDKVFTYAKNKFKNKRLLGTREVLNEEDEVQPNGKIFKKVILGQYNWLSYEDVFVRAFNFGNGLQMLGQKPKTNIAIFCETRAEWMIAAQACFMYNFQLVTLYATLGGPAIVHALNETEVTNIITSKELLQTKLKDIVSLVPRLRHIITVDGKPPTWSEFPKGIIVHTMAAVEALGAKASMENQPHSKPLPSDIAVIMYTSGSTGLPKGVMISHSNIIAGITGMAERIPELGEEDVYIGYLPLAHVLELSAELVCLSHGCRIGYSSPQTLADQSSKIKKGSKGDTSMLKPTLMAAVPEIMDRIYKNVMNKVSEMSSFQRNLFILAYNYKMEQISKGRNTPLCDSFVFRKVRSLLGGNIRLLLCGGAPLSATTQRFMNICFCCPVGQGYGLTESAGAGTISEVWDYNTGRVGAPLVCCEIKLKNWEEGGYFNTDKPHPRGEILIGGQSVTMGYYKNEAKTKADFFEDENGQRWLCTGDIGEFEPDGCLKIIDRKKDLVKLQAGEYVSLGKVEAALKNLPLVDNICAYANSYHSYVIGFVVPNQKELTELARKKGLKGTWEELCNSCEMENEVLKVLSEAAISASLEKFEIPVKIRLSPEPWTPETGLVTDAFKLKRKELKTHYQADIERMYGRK

Target: T1, TMEM166 (bait of the immunoprecipitation-mass spectrometry) (UniProt Q9H8M9)
T1 sequence: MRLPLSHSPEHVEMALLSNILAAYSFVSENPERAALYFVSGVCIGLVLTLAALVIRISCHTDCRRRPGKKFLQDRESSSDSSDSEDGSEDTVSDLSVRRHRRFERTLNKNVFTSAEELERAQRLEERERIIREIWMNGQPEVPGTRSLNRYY
Test: affinity purification with mass spectrometry; immunoprecipitation of TMEM166 followed by mass spectrometry; cells and conditions not told

- binding: binds
Substance: ACSL3 (hit of the immunoprecipitation-mass spectrometry) (from UniProt O95573 1-720)

No constants are given. Whether binding was seen depends on the method and setting. In cells and extracts the contact can be indirect. A yes stands for co-enrichment or nearness to the bait. Other partners may have been found.
